Source: the supplement of paper PMC10849652
The other results are listed elsewhere or left out.

Chains of the proteins cited; added tags and fusions are not shown. Lines headed by an entry give the natural chain unless they say otherwise; changes in a name come on top.
UniProt Q99439: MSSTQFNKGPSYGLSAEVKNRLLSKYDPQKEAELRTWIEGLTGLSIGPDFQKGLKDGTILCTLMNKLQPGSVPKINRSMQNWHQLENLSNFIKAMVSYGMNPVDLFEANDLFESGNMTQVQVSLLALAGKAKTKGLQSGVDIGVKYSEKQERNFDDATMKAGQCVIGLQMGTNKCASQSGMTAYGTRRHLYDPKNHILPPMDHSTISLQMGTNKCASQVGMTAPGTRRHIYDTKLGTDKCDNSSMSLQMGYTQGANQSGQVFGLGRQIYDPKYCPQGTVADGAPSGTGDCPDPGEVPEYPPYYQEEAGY
UniProt P51790: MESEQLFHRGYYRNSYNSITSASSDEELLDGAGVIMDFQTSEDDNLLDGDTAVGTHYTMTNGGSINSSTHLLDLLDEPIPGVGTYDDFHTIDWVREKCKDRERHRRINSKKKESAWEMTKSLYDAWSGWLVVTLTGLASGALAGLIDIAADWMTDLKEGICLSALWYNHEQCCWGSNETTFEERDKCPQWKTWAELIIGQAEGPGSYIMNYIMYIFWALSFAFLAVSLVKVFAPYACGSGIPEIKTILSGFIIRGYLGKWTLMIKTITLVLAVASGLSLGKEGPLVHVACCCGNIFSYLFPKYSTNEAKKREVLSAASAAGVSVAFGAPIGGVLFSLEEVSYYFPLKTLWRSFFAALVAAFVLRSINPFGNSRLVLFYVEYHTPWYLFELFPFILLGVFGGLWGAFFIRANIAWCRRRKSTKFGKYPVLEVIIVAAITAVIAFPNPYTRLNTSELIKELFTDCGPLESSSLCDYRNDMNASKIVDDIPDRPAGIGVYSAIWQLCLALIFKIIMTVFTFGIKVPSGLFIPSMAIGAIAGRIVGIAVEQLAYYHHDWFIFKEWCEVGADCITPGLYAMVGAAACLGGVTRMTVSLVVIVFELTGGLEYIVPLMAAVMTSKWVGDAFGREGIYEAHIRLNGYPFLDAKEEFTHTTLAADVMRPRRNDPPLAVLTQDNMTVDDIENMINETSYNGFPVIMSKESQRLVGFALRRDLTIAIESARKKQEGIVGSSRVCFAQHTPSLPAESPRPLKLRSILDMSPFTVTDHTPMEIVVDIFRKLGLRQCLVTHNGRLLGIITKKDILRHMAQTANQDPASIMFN
UniProt O43405: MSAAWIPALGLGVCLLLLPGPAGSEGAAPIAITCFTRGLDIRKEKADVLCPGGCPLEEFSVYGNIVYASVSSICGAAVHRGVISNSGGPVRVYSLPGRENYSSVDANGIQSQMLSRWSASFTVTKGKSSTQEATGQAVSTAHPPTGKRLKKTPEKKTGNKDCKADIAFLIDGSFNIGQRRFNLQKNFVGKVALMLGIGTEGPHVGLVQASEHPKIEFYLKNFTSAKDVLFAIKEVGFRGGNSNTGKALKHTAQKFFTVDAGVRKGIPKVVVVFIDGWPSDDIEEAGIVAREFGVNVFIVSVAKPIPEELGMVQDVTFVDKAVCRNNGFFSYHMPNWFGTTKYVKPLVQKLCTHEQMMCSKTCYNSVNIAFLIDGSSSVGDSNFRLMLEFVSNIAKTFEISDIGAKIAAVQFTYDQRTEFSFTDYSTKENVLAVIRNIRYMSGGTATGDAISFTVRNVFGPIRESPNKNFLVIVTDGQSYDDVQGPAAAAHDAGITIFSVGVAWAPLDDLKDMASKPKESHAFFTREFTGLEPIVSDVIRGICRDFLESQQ
UniProt Q14677: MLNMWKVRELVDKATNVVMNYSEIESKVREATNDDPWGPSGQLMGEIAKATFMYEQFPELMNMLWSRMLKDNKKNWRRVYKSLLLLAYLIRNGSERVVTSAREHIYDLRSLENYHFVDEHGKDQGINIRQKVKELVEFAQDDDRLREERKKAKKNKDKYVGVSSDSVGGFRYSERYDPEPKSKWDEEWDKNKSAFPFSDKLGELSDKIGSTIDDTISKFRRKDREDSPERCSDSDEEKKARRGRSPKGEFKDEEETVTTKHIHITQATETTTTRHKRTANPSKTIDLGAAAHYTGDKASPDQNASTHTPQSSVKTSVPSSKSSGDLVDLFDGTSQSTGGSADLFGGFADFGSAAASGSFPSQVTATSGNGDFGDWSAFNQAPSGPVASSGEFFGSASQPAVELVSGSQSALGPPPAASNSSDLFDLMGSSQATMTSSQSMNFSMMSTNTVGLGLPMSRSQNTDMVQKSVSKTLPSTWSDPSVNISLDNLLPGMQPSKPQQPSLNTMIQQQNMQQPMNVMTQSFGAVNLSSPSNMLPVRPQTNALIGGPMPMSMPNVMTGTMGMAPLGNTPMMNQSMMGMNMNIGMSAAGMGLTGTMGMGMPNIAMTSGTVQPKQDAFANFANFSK
UniProt O95628: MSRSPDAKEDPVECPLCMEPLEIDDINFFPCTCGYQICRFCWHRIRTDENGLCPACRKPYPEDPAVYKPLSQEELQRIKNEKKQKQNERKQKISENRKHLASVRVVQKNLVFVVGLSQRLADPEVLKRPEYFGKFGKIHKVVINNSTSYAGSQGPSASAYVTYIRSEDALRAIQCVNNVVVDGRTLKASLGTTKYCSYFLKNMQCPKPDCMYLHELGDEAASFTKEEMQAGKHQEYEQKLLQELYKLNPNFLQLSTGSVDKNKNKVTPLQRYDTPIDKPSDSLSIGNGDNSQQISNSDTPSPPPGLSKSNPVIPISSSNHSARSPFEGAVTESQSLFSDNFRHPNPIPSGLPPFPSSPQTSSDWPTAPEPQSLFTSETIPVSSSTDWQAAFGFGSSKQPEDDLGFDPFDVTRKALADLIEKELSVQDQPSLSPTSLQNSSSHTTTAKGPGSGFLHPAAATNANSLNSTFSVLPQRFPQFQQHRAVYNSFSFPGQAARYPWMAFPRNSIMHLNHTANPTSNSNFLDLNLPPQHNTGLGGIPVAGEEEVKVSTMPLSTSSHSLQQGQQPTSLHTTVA
UniProt Q8N9A8: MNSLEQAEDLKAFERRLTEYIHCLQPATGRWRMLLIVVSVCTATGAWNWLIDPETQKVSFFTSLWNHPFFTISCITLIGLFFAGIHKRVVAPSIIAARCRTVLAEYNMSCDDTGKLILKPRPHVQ
UniProt P83436: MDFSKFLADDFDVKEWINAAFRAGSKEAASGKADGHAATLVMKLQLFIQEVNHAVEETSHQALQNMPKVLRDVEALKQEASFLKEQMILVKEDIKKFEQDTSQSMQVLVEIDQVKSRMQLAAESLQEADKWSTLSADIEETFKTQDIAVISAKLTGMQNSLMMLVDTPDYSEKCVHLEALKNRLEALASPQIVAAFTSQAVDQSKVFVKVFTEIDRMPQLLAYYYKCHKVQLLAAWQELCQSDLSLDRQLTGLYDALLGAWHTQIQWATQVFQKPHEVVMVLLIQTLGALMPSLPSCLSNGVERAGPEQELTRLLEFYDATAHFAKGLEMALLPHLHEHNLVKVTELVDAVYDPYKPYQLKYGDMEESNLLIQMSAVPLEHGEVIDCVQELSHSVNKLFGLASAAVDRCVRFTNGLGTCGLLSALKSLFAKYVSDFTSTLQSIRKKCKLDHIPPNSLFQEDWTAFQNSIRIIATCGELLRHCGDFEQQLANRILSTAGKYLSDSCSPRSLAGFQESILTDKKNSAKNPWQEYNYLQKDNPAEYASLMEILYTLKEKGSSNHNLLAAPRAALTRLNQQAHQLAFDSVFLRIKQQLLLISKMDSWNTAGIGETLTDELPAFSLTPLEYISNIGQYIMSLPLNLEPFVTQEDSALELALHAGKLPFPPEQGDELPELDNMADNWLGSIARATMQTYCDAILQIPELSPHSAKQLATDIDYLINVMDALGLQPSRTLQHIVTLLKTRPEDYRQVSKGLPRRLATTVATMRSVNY
UniProt Q9NWW5: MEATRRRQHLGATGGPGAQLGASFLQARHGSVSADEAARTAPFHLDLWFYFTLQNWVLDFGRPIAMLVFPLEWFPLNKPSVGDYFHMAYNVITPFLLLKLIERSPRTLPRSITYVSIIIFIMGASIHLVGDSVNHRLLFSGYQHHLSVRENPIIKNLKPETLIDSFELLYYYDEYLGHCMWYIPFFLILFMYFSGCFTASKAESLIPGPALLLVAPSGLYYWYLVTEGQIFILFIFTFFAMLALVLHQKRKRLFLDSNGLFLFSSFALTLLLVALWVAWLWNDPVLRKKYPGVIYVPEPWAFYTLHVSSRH
UniProt Q96F85: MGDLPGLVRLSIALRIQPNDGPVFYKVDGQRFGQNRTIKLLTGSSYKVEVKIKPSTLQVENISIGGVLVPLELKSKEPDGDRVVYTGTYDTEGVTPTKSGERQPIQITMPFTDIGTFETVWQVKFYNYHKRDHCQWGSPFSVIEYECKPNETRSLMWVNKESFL
UniProt Q13286: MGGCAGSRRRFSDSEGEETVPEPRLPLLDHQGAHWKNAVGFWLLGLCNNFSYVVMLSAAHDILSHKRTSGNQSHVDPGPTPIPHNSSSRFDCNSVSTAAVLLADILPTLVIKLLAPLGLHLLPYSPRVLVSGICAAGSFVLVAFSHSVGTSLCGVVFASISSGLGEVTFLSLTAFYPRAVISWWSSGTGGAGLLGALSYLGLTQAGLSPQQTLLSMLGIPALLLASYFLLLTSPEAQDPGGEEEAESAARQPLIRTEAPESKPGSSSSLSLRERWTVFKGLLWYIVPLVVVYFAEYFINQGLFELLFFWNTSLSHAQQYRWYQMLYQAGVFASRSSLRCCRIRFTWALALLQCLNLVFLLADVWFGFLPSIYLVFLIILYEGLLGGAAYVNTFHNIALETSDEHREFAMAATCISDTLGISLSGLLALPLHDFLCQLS
UniProt P51801: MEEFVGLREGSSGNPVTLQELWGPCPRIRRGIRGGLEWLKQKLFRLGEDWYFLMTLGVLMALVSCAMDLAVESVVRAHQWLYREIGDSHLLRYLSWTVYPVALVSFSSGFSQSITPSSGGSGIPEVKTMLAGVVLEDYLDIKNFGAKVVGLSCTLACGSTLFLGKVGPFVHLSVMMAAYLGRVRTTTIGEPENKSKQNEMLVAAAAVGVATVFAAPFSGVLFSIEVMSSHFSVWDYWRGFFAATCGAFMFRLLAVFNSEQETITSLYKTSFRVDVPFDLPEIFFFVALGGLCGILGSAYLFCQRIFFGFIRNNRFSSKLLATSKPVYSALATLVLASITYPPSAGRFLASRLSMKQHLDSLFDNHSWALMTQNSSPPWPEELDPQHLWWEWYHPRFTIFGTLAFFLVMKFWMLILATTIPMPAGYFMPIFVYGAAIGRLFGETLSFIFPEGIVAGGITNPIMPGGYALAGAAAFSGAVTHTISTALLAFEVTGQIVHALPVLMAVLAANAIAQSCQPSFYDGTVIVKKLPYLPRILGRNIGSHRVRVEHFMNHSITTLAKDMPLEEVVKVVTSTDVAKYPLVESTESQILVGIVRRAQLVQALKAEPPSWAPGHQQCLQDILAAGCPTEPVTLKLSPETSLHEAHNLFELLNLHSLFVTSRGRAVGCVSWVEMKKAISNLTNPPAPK
UniProt Q96MW5: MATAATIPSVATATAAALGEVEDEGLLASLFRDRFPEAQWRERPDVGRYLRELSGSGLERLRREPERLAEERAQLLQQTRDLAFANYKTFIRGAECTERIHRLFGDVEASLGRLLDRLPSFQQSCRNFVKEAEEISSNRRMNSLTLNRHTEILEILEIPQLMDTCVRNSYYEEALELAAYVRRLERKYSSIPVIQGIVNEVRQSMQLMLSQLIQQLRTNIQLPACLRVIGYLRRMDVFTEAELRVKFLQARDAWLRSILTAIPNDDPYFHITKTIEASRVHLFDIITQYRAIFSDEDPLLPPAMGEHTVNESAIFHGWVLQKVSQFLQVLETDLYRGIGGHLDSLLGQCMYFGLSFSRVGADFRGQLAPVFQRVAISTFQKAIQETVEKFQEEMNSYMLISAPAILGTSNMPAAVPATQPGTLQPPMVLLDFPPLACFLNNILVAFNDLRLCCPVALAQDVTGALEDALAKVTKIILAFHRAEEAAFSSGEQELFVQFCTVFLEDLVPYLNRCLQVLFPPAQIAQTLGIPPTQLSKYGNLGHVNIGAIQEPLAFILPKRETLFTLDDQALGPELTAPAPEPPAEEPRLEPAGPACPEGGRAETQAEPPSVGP
UniProt P56749: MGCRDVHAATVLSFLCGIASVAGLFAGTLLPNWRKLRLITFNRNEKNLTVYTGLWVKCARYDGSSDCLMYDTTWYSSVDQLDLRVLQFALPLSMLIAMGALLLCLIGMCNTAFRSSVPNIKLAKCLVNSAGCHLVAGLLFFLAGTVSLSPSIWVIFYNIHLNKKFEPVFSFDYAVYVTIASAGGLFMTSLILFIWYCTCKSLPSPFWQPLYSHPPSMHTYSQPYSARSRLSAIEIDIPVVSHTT
UniProt Q9Y240: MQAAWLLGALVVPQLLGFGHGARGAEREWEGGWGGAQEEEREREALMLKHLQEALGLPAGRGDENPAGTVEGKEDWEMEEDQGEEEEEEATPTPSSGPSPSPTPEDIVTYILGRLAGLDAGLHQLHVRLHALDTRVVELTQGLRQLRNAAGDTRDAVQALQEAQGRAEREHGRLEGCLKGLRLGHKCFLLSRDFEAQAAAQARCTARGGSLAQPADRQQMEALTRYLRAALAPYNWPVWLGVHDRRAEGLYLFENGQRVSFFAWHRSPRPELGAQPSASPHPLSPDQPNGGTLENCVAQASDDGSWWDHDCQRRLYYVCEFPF

Assays:
Experiment in all cases: log2 fold change, soluble protein after heating vs DMSO (PISA); higher = thermal stabilisation; K562 cells, 10 uM, 30 min; active = over 0.2 and 3.5 SD of the protein, either way, in both replicates (recomputed)
[1] = compound: CN1CCN(CCOc2cc(OC3CCOCC3)c3c(Nc4c(Cl)ccc5c4OCO5)ncnc3c2)CC1 [saracatinib]
Procedure, shortened: (§1)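 Soluble protein was defined as the supernatant after 21,000xg for 90 min. It came from K562 cells at 2×10^6 cells/mL given 10 μM compound for 30 min, heated in aliquots for 3 min across 48°C-58°C, pooled, and extracted in PBS with 0.5% NP-40 at 4°C, and was quantified by TMTpro 16plex LC-MS/MS with equalised channel sums. Thermal stability against control samples, from duplicates, is reported as log2 fold change.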

[2] = compound: CN1CC[C@H](c2c(O)cc(O)c3c(=O)cc(-c4ccccc4Cl)oc23)[C@H](O)C1 [alvocidib]
Procedure, shortened: as §1

[3] = compound: CN1CCc2c(c3ccccc3n2Cc2ccc(C(=O)NO)cc2)C1 [Tubastatin A]
Procedure, shortened: as §1

[4] = compound: CNC(=O)C1=CC=CC=C1NC2=NC(=NC=C2Cl)NC3=C(C=C(C=C3)N4CCOCC4)OC
Procedure, shortened: as §1

[5] = compound: CNC(=O)c1ccc(Nc2ncc(C(F)(F)F)c(NCc3nccnc3N(C)S(C)(=O)=O)n2)cc1 [defactinib]
Procedure, shortened: as §1

[6] = compound: CNc1nc(-c2ccc3c(N)n[nH]c3c2)cc(N2C[C@@H](C(=O)NC3CCCCC3)CC[C@H]2C)n1
Procedure, shortened: as §1

[7] = compound: COC(=O)[C@H](CCSC)NC(=O)C1=C(C=C(C=C1)NC[C@H](CS)N)C2=CC=CC=C2
Procedure, shortened: as §1

[8] = compound: CN1CCN(c2nc(C3=C(c4c[nH]c5ccccc45)C(=O)NC3=O)c3ccccc3n2)CC1 [sotrastaurin]
Procedure, shortened: as §1

[9] = compound: CNCc1ccc(-c2[nH]c3cc(F)cc4c3c2CCNC4=O)cc1 [rucaparib]
Procedure, shortened: as §1

[10] = compound: COC(=O)N[C@@H](C)CNc1nccc(-c2cn(C(C)C)nc2-c2cc(Cl)cc(NS(C)(=O)=O)c2F)n1 [encorafenib]
Procedure, shortened: as §1

Measured: log2 fold change

CHST14 (UniProt Q8NCH0)
inactive: [1] -0.005 | [2] 0.06 | [3] -0.043 | [4] -0.051 | [5] 0.015 | [6] -0.005 | [7] 0.029

COG2 (UniProt Q14746)
inactive: [1] 0.001 | [8] -0.32 | [3] -0.08 | [4] -0.135 | [9] -0.272 | [6] -0.085 | [10] 0.007

CNN2 (UniProt Q99439)
inactive: [1] 0.004 | [8] -0.161 | [3] 0 | [4] -0.003 | [5] -0.087 | [9] -0.008 | [6] -0.077 | [10] 0.023 | [7] 0

CLCN3 isoform 2 (UniProt P51790)
inactive: [1] 0.104 | [8] -0.002 | [3] -0.06 | [4] -0.018 | [5] -0.009 | [9] -0.002 | [6] -0.015 | [10] -0.027 | [7] -0.014

COCH (UniProt O43405)
inactive: [1] 0.126 | [8] 0.01 | [3] -0.036 | [4] 0.031 | [5] 0.1 | [9] 0.011 | [6] -0.139 | [10] -0.074 | [7] 0.05

CNOT7 (UniProt Q9UIV1)
inactive: [1] 0.008 | [8] -0.044 | [3] 0.004 | [4] -0.035 | [5] 0.018 | [9] 0.051 | [6] 0.104 | [10] 0.113 | [7] -0.109

CLINT1 isoform 3 (UniProt Q14677)
inactive: [1] 0.083 | [8] 0.041 | [3] -0.036 | [4] 0.185 | [5] 0.035 | [9] 0.109 | [6] -0.06 | [10] -0.059 | [7] 0.012

COIL (UniProt P38432)
inactive: [1] -0.023 | [8] -0.23 | [3] 0.008 | [4] 0.1 | [9] -0.268 | [6] -0.029 | [10] 0.077

CNN1 (UniProt P51911)
inactive: [8] 0.15 | [3] 0.126 | [5] -0.028 | [9] 0.102 | [10] -0.046 | [7] 0.043

CNOT4 isoform 9 (UniProt O95628)
inactive: [1] 0.077 | [3] -0.027 | [4] 0.187 | [5] -0.129 | [9] -0.057 | [6] -0.021 | [10] -0.05 | [7] 0.038

CLCN5 isoform 2 (UniProt P51795)
inactive: [1] -0.001 | [3] -0.006 | [4] 0.009 | [5] -0.033 | [9] 0.097 | [6] -0.116 | [10] 0.075 | [7] -0.025

Three records drawn at random from those above:
CLINT1 isoform 3 (UniProt Q14677)
inactive: [1] 0.083 | [8] 0.041 | [3] -0.036 | [4] 0.185 | [5] 0.035 | [9] 0.109 | [6] -0.06 | [10] -0.059 | [7] 0.012

CLCN5 isoform 2 (UniProt P51795)
inactive: [1] -0.001 | [3] -0.006 | [4] 0.009 | [5] -0.033 | [9] 0.097 | [6] -0.116 | [10] 0.075 | [7] -0.025

CNOT7 (UniProt Q9UIV1)
inactive: [1] 0.008 | [8] -0.044 | [3] 0.004 | [4] -0.035 | [5] 0.018 | [9] 0.051 | [6] 0.104 | [10] 0.113 | [7] -0.109

Further results follow.

CNEP1R1 isoform 2 (UniProt Q8N9A8)
inactive: [2] 0.288 | [3] 0.051 | [4] 0.003 | [5] -0.02 | [7] -0.014

CLASP2 (UniProt O75122)
inactive: [4] 0 | [9] 0 | [10] 0.098

COG7 (UniProt P83436)
inactive: [1] -0.041 | [2] 0.027 | [4] 0.062 | [5] 0.009 | [6] 0.066 | [7] -0.056

CLPTM1L (UniProt G5E9Z2)
inactive: [8] -0.288 | [3] -0.109 | [5] 0.002 | [7] -0.029

CMIP (UniProt Q8IY22)
inactive: [8] -0.566 | [9] 0.044 | [10] 0.133

CLN6 (UniProt Q9NWW5)
inactive: [8] 0 | [2] 0.145 | [3] -0.04 | [5] -0.046 | [9] 0 | [10] -0.084 | [7] 0.177

CNRIP1 (UniProt Q96F85)
inactive: [4] 0.053

CLDN6 (UniProt P56747)
inactive: [1] -0.042 | [4] -0.119 | [6] 0.275

CLP1 (UniProt Q92989)
inactive: [8] -0.06 | [2] -0.116 | [3] 0.1 | [4] -0.026 | [9] -0.077 | [10] 0.152

CLN3 (UniProt Q13286)
inactive: [1] 0.046 | [3] 0.065 | [4] 0.004 | [5] -0.039 | [9] 0.082 | [6] -0.097 | [10] -0.053 | [7] 0.149

CMTM4 (UniProt Q8IZR5)
inactive: [8] -0.046 | [3] -0.141 | [5] 0.062 | [9] 0.015 | [10] -0.034 | [7] 0.089

CLCNKB (UniProt P51801)
inactive: [1] 0.267 | [2] -0.05 | [4] 0.105 | [5] -0.04 | [6] 0.026 | [7] 0.024

COG8 (UniProt Q96MW5)
inactive: [2] 0.172 | [9] 0.34 | [10] -0.14

CLDN12 (UniProt P56749)
inactive: [8] -0.077

CNBP isoform 4 (UniProt P62633)
inactive: [9] 0.049 | [10] -0.037

CHST11 (UniProt Q9NPF2)
inactive: [8] -0.02 | [3] 0.08 | [4] 0.079 | [5] -0.003 | [9] 0.083 | [10] 0.177 | [7] -0.048

CMC4 (UniProt P56277)
inactive: [1] -0.216 | [2] -0.076 | [4] -0.022 | [6] 0.001

CHURC1-FNTB (UniProt B4DL54)
inactive: [8] 0.024 | [3] 0.059 | [4] -0.032 | [5] -0.144 | [9] 0.002 | [10] -0.028 | [7] -0.174

CLYBL (UniProt Q8N0X4)
inactive: [4] -0.098

CLASRP (UniProt Q8N2M8)
inactive: [8] -0.046 | [2] -0.018 | [4] -0.071 | [9] -0.04 | [10] -0.189

COL12A1 (UniProt Q99715)
inactive: [8] -0.063 | [3] -0.109

CHST10 (UniProt O43529)
inactive: [8] -0.01 | [3] -0.037 | [4] 0.035

CLIP1 isoform 2 (UniProt P30622)
inactive: [8] 0.048 | [2] -0.055 | [4] -0.115 | [5] 0.075 | [9] 0.017 | [10] -0.025 | [7] -0.072

COG5 isoform 2 (UniProt Q9UP83)
inactive: [4] -0.001 | [5] 0.01 | [7] -0.034

CKS2 (UniProt P33552)
inactive: [1] -0.044 | [3] 0.031 | [9] 0.025 | [6] -0.101 | [10] 0.078

CLINT1 (UniProt Q14677)
inactive: [1] -0.003 | [3] -0.029 | [5] -0.002 | [9] 0.128 | [6] -0.062 | [10] -0.045 | [7] 0.036

CLEC11A (UniProt Q9Y240)
inactive: [1] -0.109 | [3] 0.069 | [4] -0.017 | [6] 0.092

COA5 (UniProt Q86WW8)
inactive: [1] -0.002 | [2] 0.15 | [4] -0.071 | [5] 0.062 | [6] -0.064 | [7] 0.05

CMYA5 (UniProt Q8N3K9)
inactive: [8] 0.276 | [2] 0.112 | [3] -0.059

CLSTN3 isoform 2 (UniProt Q9BQT9)
inactive: [5] 0.022 | [7] 0.207
